Among the data in paper doi:10.1101/2022.09.10.507366 are binding values, retold here.

Results are given in words; binding and its absence hold for the method and conditions named. In cells and extracts the contact can be indirect. Here binding means that the protein was enriched with, or labelled near, the bait; the list need not be complete. Where a sequence is shown, tags or fusion partners need not be part of it.

The test addresses T1, FLAG-tagged FBXO11 (UniProt Q86XK2).
T1 sequence: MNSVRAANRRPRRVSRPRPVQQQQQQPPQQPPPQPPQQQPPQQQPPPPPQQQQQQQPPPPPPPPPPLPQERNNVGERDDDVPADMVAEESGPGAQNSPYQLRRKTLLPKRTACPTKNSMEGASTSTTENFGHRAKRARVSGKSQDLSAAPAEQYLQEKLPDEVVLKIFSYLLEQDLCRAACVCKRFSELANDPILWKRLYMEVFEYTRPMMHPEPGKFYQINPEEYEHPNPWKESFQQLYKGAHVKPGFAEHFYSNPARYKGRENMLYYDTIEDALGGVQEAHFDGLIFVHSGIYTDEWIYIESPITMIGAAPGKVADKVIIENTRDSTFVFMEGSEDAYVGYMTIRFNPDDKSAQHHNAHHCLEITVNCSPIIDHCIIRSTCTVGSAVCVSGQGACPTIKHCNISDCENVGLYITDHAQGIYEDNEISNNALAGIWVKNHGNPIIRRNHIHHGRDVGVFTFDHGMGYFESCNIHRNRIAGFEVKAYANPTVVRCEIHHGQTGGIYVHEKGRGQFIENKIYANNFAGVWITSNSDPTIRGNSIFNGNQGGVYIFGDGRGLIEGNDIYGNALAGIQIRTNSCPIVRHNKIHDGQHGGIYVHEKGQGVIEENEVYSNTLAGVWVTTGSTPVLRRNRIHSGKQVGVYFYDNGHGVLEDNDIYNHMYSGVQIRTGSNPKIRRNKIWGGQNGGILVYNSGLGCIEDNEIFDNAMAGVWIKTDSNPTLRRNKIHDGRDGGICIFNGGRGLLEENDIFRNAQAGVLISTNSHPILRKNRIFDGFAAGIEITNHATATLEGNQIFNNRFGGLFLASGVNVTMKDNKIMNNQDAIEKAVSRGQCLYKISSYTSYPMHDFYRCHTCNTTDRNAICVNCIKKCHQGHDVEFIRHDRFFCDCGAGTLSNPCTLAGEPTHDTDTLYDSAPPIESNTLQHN
Nature of the test: affinity purification with mass spectrometry.

As to SKP1 (from UniProt P63208 1-163), the binding entry was “binds”.
